Measured values: US8481538B2, “Heterocyclic inhibitors of c-Met and uses thereof” (Vertex Pharmaceuticals Incorporated, priority 2006, dated 2013)
The structures given here were assigned with low confidence; some may be wrong.

By UniProt entry, the sequences of proteins in these tests, tags left out. Residues count along the entry.
UniProt P08581, 25-1390 limits assumed: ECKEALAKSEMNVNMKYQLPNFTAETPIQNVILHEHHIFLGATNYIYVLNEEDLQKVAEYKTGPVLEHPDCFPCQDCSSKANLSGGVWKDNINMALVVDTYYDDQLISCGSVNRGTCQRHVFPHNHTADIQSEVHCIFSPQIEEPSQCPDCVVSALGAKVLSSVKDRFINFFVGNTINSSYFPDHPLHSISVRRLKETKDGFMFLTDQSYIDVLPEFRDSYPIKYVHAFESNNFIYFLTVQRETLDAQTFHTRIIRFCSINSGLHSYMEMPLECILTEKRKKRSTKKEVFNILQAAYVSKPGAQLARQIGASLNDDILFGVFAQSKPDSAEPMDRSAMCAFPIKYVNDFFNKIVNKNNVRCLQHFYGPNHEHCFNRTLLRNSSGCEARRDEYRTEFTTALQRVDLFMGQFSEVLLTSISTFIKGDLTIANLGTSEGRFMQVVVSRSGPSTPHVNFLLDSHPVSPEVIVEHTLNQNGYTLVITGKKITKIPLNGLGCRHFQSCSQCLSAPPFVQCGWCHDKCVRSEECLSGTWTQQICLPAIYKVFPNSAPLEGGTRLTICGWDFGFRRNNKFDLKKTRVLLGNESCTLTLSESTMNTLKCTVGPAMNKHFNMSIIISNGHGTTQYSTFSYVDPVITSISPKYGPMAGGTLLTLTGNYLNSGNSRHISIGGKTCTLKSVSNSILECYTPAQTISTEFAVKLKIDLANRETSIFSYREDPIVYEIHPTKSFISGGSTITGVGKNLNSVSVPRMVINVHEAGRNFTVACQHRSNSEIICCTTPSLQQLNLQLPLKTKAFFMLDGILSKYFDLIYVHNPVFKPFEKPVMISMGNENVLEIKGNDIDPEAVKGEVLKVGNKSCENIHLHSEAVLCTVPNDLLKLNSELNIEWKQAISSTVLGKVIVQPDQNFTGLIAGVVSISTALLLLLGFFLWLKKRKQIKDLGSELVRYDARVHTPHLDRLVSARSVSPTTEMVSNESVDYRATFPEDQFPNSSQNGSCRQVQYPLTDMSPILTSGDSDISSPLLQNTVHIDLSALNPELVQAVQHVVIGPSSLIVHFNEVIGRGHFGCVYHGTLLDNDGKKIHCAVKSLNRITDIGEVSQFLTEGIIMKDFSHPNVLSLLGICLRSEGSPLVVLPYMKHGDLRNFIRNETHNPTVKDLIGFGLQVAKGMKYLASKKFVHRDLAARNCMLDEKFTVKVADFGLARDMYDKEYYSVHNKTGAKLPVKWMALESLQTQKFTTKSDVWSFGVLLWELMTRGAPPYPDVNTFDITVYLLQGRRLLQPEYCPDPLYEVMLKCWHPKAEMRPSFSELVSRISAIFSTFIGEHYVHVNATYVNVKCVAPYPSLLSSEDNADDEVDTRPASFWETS

Molecular target: c-Met (Homo sapiens, UniProt P08581)
Assay: Ki determination for the inhibition of c-Met (standard radiometric kinase assay)
Details: read-out: c-Met Ki; radiometric 33P-ATP assay, 1.0 nM c-Met, 35 μM ATP, 0.5 mg/mL polyE4Y, competitive tight-binding fit
Method: Ki Determination for the Inhibition of c-Met
Compounds of the invention were screened for their ability to inhibit c-Met kinase activity using a standard radiometric assay. Briefly, in this kinase assay the transfer of the terminal ^33P-phosphate in ^33P-ATP to substrate polyE4Y is interrogated. The assay was carried out in 96-well plates to a final volume of 100 μL per well containing 1.0 nM c-Met, 100 mM HEPES (pH 7.5), 10 mM MgCl2, 25 mM NaCl, 0.01% BSA, 1 mM DTT, 0.5 mg/mL polyE4Y, and 35 μM ATP. Accordingly, compounds of the invention were dissolved in DMSO to make 10 mM initial stock solutions. Serial dilutions in DMSO were then made to obtain the final solutions for the assay. A 1.5 μL aliquot of DMSO or inhibitor in DMSO was added to each well. The reaction was initiated by the addition of ^33P-ATP and polyE4Y (obtained from Sigma). After 20 min, the reaction was quenched with 50 μL of 30% trichloroacetic acid (TCA) containing 4 mM ATP. […] Following the addition of 50 μL of Ultimate Gold™ high efficiency scintillant (Packard Bioscience), the samples were counted in a Packard TopCount NXT Microplate Scintillation and Luminescence Counter (Packard BioScience). The Ki values were calculated using Microsoft Excel Solver macros to fit the data to the kinetic model for competitive tight-binding inhibition. […]

Work on `C[C@@H](NC(=O)c1nc(-c2cnn(C3CCNCC3)c2)cnc1N)c1nnc2sc(Nc3cccc(Cl)c3)nn12` yielded a Ki of less than 250 nM.
